Laboratory results from US20140242609A1, “Diagnosis and treatment of kidney stones, methods and compositions therefor” (Washington University, priority 2013, published 2014).
No constants are given. Whether binding was seen depends on the method and setting. For some assays here: In cells and extracts the contact can be indirect. Some results given as binding are weak or reduced against the parent protein; the word gives no strength.

How the values were obtained:
[1] = target: mouse CLDN14 (AF314089) (mouse) (UniProt Q9Z0S3); assay: split-ubiquitin yeast 2-hybrid, reporters HIS3, lacZ, ADE2, yeast NMY51
[2] = target: T1, human CLDN16 (AF152101) (human, UniProt Q9Y5I7 1-235); assay: split-ubiquitin yeast 2-hybrid, figure legend
T1 sequence (looked up): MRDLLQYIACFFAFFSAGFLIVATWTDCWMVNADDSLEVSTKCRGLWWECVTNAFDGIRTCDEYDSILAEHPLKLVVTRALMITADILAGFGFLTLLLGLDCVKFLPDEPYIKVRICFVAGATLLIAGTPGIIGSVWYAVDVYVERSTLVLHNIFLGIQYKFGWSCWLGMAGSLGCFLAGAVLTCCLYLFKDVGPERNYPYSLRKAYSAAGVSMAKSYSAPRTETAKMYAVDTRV

[3] = target: mouse CLDN14 (AF314089) (mouse) (UniProt Q9Z0S3); assay: split-ubiquitin yeast 2-hybrid
[4] = target: T1, human CLDN16 (AF152101); assay: co-immunoprecipitation, doubly transfected HEK293 cells
[5] = target: T1, human CLDN16 (AF152101); assay: split-ubiquitin yeast 2-hybrid, yeast NMY51

Measured: binding

B1: mouse CLDN14 (AF314089) (other, UniProt Q9Z0S3 1-239, looked up)
chain: MASTAVQLLGFLLSFLGMVGTLITTILPHWRRTAHVGTNILTAVSYLKGLWMECVWHSTGIYQCQIYRSLLALPRDLQAARALMVISCLLSGMACACAVVGMKCTRCAKGTPAKTTFAVLGGALFLLAGLLCMVAVSWTTNDVVQNFYNPLLPSGMKFEIGQALYLGFISSSLSLIGGTLLCLSCQDEAPYRPYPPQSRAGATTTATAPAYRPPAAYKDNRAPSVTSAAHSGYRLNDYV
binds: all assays above
